The whole screen tested about 240,000 compounds, of which about 1,300 (0.54%) were called active. The inconclusive results got no clear call from the source; some entries with a clear call stand among them for comparison. Calls follow the shape of the dose curve; as a rule, active = well fitted inhibition curve with a large enough effect; inconclusive = small, poorly fitted or top-dose-only effect; inactive = flat fitted curve, though single readings scatter. Where the call is inconclusive, the potency comes from a doubtful curve fit. Some compounds were tested as several samples or in several runs, with calls that do not always agree.
Each molecule was assayed against ATP-dependent DNA helicase Q1 (Homo sapiens) (UniProt P46063) (assay: qHTS Assay for Inhibitors of RecQ-Like Dna Helicase 1 (RECQ1)). Conditions: RECQ1 DNA unwinding, red fluorescence kinetic read; series mostly up to 57.3 µM.
Summary of the method: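 50 nM RECQ1T1 preincubated 15 min with compound in Tris pH 8.0 buffer with MgCl2, DTT, Tween-20 and 2.5 ug/ml poly(dI-dC); started with 200 nM TAMRA/BHQ-2 forked duplex and 2 mM ATP. Unwinding read as fluorescence (525/598 nm), two reads 2 h apart.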
Also: nearly all actives have a fitted effect of over 30% in size.
Potency is read from the fitted curve at half-maximal effect.

Amino acid sequences for entries named in this document (tags omitted). A change or cut given only in a name is not applied to a line headed by its entry.
UniProt P46063: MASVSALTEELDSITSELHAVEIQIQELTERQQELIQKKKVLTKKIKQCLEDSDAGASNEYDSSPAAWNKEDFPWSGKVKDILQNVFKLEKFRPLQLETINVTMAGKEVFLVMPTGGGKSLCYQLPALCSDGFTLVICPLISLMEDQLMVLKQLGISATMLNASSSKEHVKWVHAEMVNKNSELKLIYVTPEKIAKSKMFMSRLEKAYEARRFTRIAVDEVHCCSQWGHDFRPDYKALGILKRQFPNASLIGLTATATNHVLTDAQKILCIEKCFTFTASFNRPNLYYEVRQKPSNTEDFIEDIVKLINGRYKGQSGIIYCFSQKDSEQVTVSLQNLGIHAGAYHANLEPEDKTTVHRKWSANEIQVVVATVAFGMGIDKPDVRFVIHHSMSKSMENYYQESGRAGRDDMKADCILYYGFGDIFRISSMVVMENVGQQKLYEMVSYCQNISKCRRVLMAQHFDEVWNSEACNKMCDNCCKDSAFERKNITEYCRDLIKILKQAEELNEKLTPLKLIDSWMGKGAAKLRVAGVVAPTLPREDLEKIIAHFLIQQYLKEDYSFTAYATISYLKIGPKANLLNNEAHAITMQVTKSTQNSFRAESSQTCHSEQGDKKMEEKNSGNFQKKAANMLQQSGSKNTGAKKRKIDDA

Compound | Potency
Cc1cc(=O)[nH]c(Nc2cccc(C(F)(F)F)c2)n1 | inactive
Cc1cc2cc(C(c3nnnn3Cc3ccco3)N3CCc4ccccc43)c(=O)[nH]c2cc1C (stereo not drawn) | inconclusive: 35.5 µM [inhibitor, single point]
Cc1cc(C)n2nc(C(=O)OCC(=O)c3cc(C)n(C)c3C)nc2n1 | inconclusive: 39.8 µM [inhibitor, single point]
COc1cc2nc(/C=C/c3cc(OC)c(OC)c(OC)c3)sc2cc1SC | inconclusive: 35.5 µM [inhibitor, partial curve, poor fit]
Cc1ccc(NC(=O)c2cc(S(=O)(=O)NCCc3ccccc3)ccc2F)cc1Cl | inconclusive: 31.6 µM [inhibitor, single point]
CCOC(=O)CCc1c(C)nc2cc(C3CCCN(C(=O)OC(C)(C)C)C3)[nH]n2c1=O (stereo not drawn) | inconclusive: 20 µM [inhibitor, partial curve, poor fit]
COc1cccc(CNc2nc3nc(C)cc(C)n3n2)c1 | inactive
COc1ccccc1COC(=O)N/C=C/c1ccco1 | inconclusive: 39.8 µM [inhibitor, single point]
COc1cc(/C=C2\CCc3c2nc2ccccc2c3C(=O)O)cc(OC)c1OC | active: 10 µM
Cc1cnc(CNc2ncnc3ccc(-c4ccc5c(c4)OCO5)cc23)cn1 | active: 20 µM
COc1ccccc1-c1cc(SC)c(C#N)c(=O)o1 | inconclusive: 35.5 µM [inhibitor, single point]
COc1ccccc1N1CCN(C(=O)c2ccc(S(=O)(=O)N3CCCCC3)cc2)CC1 | inconclusive: 0.178 µM [inhibitor, full curve, poor fit]
Cc1ccc(-n2c(C)cc(/C=N/NC(=O)CC3(C)OCCO3)c2C)c(C)c1 | inactive
CCOc1ccc(C(=O)N/N=C/c2ccc(-c3ccc(S(=O)(=O)Nc4ncccn4)cc3)o2)cc1 | inconclusive: 39.8 µM [inhibitor, single point]
COC(=O)CCC(=O)OC1(C)C(=O)C2=COC(c3ccc(OC)cc3)=CC2=C(Br)C1=O (stereo not drawn) | inconclusive: 35.5 µM [inhibitor, single point]
CCN(C(=O)c1coc(=O)c(Br)c1)c1ccc2c(c1)OCO2 | inconclusive: 39.8 µM [inhibitor, single point]
Cn1c(CO)cnc1S(=O)(=O)Cc1ccc(Cl)cc1 | inconclusive: 35.5 µM [inhibitor, single point]
Cc1ccsc1/C=C/C1=Cc2c(sc(NC(=O)CSc3n[nH]c(N)n3)c2C#N)C(C)(C)C1 | inconclusive: 35.5 µM [inhibitor, single point]
Cc1cc(C)c2c(N)c3cccc(C)c3nc2n1 | inactive
COCCOC(=O)c1c(NC(=O)CNCc2ccco2)sc(C(N)=O)c1C | inconclusive: 39.8 µM [inhibitor, single point]
Nc1ccc(C(=O)OCC(=O)N2CCN(C(=O)c3ccco3)CC2)cc1[N+](=O)[O-] | inactive
N#C/C(=C\c1ccc(O)c(O)c1)C(=O)NCc1ccccc1 | active: 31.6 µM
CC(C(=O)O)N1C(=O)/C(=C/C=C/c2ccco2)SC1=S (stereo not drawn) | active: 6.31 µM
CSC1=N/C(=C\c2ccc(C)s2)C(=O)S1 | inactive
Cc1ccc2oc(-c3cccc(NC(=S)NC(=O)/C=C/c4ccco4)c3)nc2c1 | inconclusive: 6.31 µM [inhibitor, single point]

Compound | Potency
CCCCN(C(=O)Cn1ncc(Cl)c(Cl)c1=O)c1c(N)n(CC(C)C)c(=O)[nH]c1=O | active: 28.2 µM
COC(=O)CN1C(=O)[C@@H]2[C@H](C1=O)[C@@H]1CC(C(=O)OC)=C[C@@H](C(=O)OC)C3C1=C(C(=O)[C@@]3(C)NC(=O)c1ccccc1)[C@@H]2C (stereo partly drawn) | inactive
Cc1ccccc1NS(=O)(=O)c1ccc(OCC(=O)N2CCCC2)cc1 | inactive
Cc1nn(-c2ccc(Cl)cc2)c(=O)c2ccccc12 | inactive
O=C1NC(=Nc2ccc3ccccc3c2)S/C1=C/c1ccco1 | inconclusive: 31.6 µM [inhibitor, single point]
COCCN1C(=O)N[C@H](c2cccc(C(F)(F)F)c2)C(C(=O)OC)=C1C | inconclusive: 35.5 µM [inhibitor, partial curve]
O=C(NC1(C(F)(F)F)N=C2SCCN2C1=O)c1cccnc1 (stereo not drawn) | inconclusive: 3.98 µM [inhibitor, partial curve]
CCc1ccc(-n2c(C)cc(/C=N/NC(=O)c3ccncc3)c2C)cc1 | inactive
O=C(COC(=O)c1cc(NS(=O)(=O)c2cccs2)ccc1O)Nc1ccc(F)c(F)c1F | inactive
COc1cc(C)c(C#N)c(OC)n1 | inconclusive: 5.01 µM [inhibitor, full curve]
CCc1cccc2c(C(=O)Cn3nnc(-c4ccc(OC)c(OC)c4)n3)c[nH]c12 | inconclusive: 39.8 µM [inhibitor, single point]
CS(=O)(=O)C1=NSC2=NC(=O)/C(=C\c3ccc(-c4ccccc4)o3)C(=N)N21 | inconclusive: 0.178 µM [inhibitor, full curve]
CCCCOC(=O)CCCN1C(=O)/C(=C2\SC(=S)N(CCCC(=O)OCCCC)C2=O)SC1=S | inconclusive: 20 µM [inhibitor, single point]
CCNc1ncc2nc(-c3cccs3)c(=O)n(CCc3ccccc3)c2n1 | active: 28.2 µM
O=C1/C(=C\c2ccc(O)c(O)c2)C(c2ccccc2)=NN1c1ccccc1 | inconclusive: 39.8 µM [inhibitor, single point]
CCC1=NN2C(=N)/C(=C\c3cccn3-c3ccc(OC)cc3)C(=O)N=C2S1 | inactive
O=C1C=C(NCCN2CCOCC2)C(=O)c2cnccc21 | inactive
O=C(CC1CCCCC1)NCc1ccccn1 | inconclusive: 12.6 µM [inhibitor, partial curve]
CC1CC(C)CN(C(=O)CNS(=O)(=O)c2ccc(Br)s2)C1 (stereo not drawn) | inconclusive: 0.224 µM [inhibitor, full curve, poor fit]
O=c1cc(-c2ccccc2)oc2c1ccc1ccccc12 | inactive
CNCc1ccccc1Sc1cc(O)ccc1O | inconclusive: 0.316 µM [inhibitor, partial curve, poor fit]
CN(C)C(=O)CSc1nnc(-c2cccs2)n1-c1ccccc1 | inconclusive: 25.1 µM [inhibitor, single point]
O=C(CSc1nnc2ccccn12)Nc1nsc(-c2ccccc2)n1 | inconclusive: 0.0398 µM [inhibitor, full curve]
C=CCn1c(COc2ccccc2)nnc1SCC(=O)N/N=C/c1ccc(C)cc1 | inactive
COc1cc(O)c(C(C)=O)c(CC(=O)O)c1 | inconclusive: 28.2 µM [inhibitor, single point]

In the list so far, 4 have a cyano group:
Compound | Potency
COc1ccccc1-c1cc(SC)c(C#N)c(=O)o1 | inconclusive: 35.5 µM [inhibitor, single point]
Cc1ccsc1/C=C/C1=Cc2c(sc(NC(=O)CSc3n[nH]c(N)n3)c2C#N)C(C)(C)C1 | inconclusive: 35.5 µM [inhibitor, single point]
N#C/C(=C\c1ccc(O)c(O)c1)C(=O)NCc1ccccc1 | active: 31.6 µM
COc1cc(C)c(C#N)c(OC)n1 | inconclusive: 5.01 µM [inhibitor, full curve]

The list goes on.

Compound | Potency
CCOC(=O)c1c(-c2ccc(C)o2)csc1NC(=O)CSc1nncs1 | active: 1.78 µM
Nc1nnc(CC(=O)N/N=C\c2cc([N+](=O)[O-])ccc2O)s1 | inactive
O=C(CSc1nc(-c2ccc(F)cc2)nc2c1Cc1ccccc1O2)Nc1cccc(C(=O)O)c1 | inconclusive: 6.31 µM [inhibitor, single point]
COc1ccc(O)c(N)c1 | inconclusive: 25.1 µM [inhibitor, single point]
CN=c1scc(C)n1/N=C/c1ccc(O)c(O)c1O | active: 10 µM
COc1cc2c(cc1OC)C(C(=O)O)C(c1ccc(C)o1)N(C)C2=O (stereo not drawn) | inconclusive: 3.55 µM [inhibitor, partial curve, poor fit]
COc1ccc(Cn2c(C)nc3c(c(=O)c4ccccc4n3C)c2=O)cc1 | inactive
Cc1ccc(S(=O)(=O)N/N=C/c2c(F)cccc2Cl)cc1 | inconclusive: 39.8 µM [inhibitor, single point]
CCCSc1nc(C)c(-c2csc(C(C#N)=C3CCCC3)n2)cc1C#N | active: 7.94 µM
FC(F)(F)c1cc(CCN2C(=S)NC[C@@H]2Cc2ccccc2)cc(C(F)(F)F)c1 | inconclusive: 22.4 µM [inhibitor, partial curve]
O=C1/C(=C/c2ccc(O)c(O)c2)SC(=S)N1Nc1ccccc1 | active: 14.1 µM
Cc1cc(C(=O)N/N=C2/CC(C)CC(C)(C)C2)c(C)o1 (stereo not drawn) | inconclusive: 8.91 µM [inhibitor, single point]
O=c1[nH]c(Nc2ccccc2)cc2ccccc12 | inconclusive: 39.8 µM [inhibitor, single point]
O=C(NCCCN1CCCCCC1)c1ccc(N2CCCC2=O)cc1 | inconclusive: 39.8 µM [inhibitor, single point]
Cc1nn(CC(=O)NNC(=S)Nc2ccccc2)c(C)c1[N+](=O)[O-] | inconclusive: 3.55 µM [inhibitor, partial curve]
COc1ccccc1C(=O)Oc1cc(N)n(S(=O)(=O)c2ccccc2)n1 | inconclusive: 39.8 µM [inhibitor, single point]
NN1C(=O)/C(=C\c2ccco2)SC1=S | inconclusive: 31.6 µM [inhibitor, single point]
C/C=C/C/C=C/CCC(=O)[C@H]1O[C@H]1C(N)=O | inactive
CCN(CC)c1ccc(CNCc2cccs2)cc1 | inconclusive: 39.8 µM [inhibitor, single point]
CN(C)c1ccc(P(=O)(OC2CCCCC2)C(O)c2ccncc2)cc1 (stereo not drawn) | inactive
COc1ccc(Cl)cc1NC(=O)CN(C)CC(=O)Nc1ccc(C)cc1Br | active: 35.5 µM
COCCNC(=O)c1noc2c1CCc1cc(OC)ccc1-2 | inactive
COc1cc(/C=C2\SC(=S)N(NC(=O)c3cccnc3)C2=O)ccc1O | active: 25.1 µM

From PubChem BioAssay AID2549 (National Center for Advancing Translational Sciences (NCATS), 2010)
